The text below walks through data of PubChem BioAssay AID2320 (National Center for Advancing Translational Sciences (NCATS), 2010).

The list shows a part of the results, in another mix than the full data. Records with an inconclusive call do not appear. A call without a number means that no potency is given here. The source made the active and inactive calls. Calls follow the shape of the full dose curve.

This assay is described as follows: A qHTS for Small Molecule Inhibitors of Shiga Toxin (Confirmatory). Also: nearly all actives have a fitted effect of over 75% in size. For orientation: Quantitative high-throughput screening tests each substance at several concentrations.
Potency is read from the fitted curve at half-maximal effect.

Turning to `Cc1ccc(-c2cc(C(=O)N3N=C(C(F)F)CC3(O)C(F)F)c3ccccc3n2)cc1C` (configuration not stated), the Potency is active: 12.6 µM. The entry for `O=C(NCc1ccncc1)C(=O)NCC1OCCN1S(=O)(=O)c1ccc(F)cc1` (configuration not stated) is “inactive”.
